Results reported in PMC2843739.
No constants are given. Whether binding was seen depends on the method and setting. In cells and extracts the contact can be indirect. Some results given as binding are weak or reduced against the parent protein; the word gives no strength. Each block holds one binder with its values, some of them ahead of it.

Protein sequences, listed by entry. Tags and fused reporters are not part of them. Residues count along the entry.
UniProt P08113, residues 22-802: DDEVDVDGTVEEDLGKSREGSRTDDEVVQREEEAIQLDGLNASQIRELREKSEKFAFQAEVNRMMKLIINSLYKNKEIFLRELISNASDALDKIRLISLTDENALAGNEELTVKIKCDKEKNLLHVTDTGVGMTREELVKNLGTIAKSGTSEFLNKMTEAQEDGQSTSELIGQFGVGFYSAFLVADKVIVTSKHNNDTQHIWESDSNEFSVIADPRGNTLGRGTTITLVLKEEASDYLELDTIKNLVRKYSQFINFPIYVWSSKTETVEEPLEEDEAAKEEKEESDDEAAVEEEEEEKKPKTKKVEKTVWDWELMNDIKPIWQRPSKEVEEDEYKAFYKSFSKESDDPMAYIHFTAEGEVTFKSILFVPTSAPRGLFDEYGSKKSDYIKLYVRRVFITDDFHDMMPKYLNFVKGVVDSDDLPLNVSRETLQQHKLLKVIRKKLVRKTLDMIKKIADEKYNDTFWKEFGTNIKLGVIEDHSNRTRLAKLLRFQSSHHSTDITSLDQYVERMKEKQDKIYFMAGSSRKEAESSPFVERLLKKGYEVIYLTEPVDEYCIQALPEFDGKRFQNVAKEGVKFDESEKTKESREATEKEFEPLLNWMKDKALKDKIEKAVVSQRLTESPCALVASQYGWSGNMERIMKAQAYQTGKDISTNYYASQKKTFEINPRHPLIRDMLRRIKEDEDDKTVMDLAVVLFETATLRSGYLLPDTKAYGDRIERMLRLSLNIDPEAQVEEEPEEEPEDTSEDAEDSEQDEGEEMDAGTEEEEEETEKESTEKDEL

What was measured:
[1] = biological target: gp96 (endogenous, RAW264.7 cells) (mouse (endogenous in RAW264.7)) (UniProt P08113); experiment: co-IP; RAW264.7 cell lysates, cells with or without 10µM GPM1 for 24h; immunoprecipitated with control IgG or anti-gp96 antibody, immunoblotted with anti-KDELR1, anti-AIMP1 and gp96 antibodies
[2] = biological target: gp96 (endogenous, RAW264.7 cells) (mouse (endogenous in RAW264.7)) (UniProt P08113); experiment: condition: only cells treated with 10µM GPM1 for 24h; co-IP; RAW264.7 cells treated with 10µM GPM1 for 24h; lysates immunoprecipitated with anti-gp96 antibody, immunoblotted with anti-AIMP1

binding [1]: binds
B1: KDEL receptor 1 (KDELR1) (receptor, UniProt Q99JH8 1-212)
chain: MNLFRFLGDLSHLLAIILLLLKIWKSRSCAGISGKSQVLFAVVFTARYLDLFTNYISLYNTCMKVVYIACSFTTVWMIYSKFKATYDGNHDTFRVEFLVVPTAILAFLVNHDFTPLEILWTFSIYLESVAILPQLFMVSKTGEAETITSHYLFALGVYRTLYLFNWIWRYHFEGFFDLIAIVAGLVQTVLYCDFFYLYITKVLKGKKLSLPA

binding [2]: no binding
binding [1]: binds
B2: AIMP1 (endogenous, RAW264.7 cells) (protein, UniProt P31230 1-310)
chain: MATNDAVLKRLEQKGAEADQIIEYLKQQVALLKEKAILQATMREEKKLRVENAKLKKEIEELKQELILAEIHNGVEQVRVRLSTPLQTNCTASESVVQSPSVATTASPATKEQIKAGEEKKVKEKTEKKGEKKEKQQSAAASTDSKPIDASRLDLRIGCIVTAKKHPDADSLYVEEVDVGEAAPRTVVSGLVNHVPLEQMQNRMVVLLCNLKPAKMRGVLSQAMVMCASSPEKVEILAPPNGSVPGDRITFDAFPGEPDKELNPKKKIWEQIQPDLHTNAECVATYKGAPFEVKGKGVCRAQTMANSGIK
